# Laboratory results reported in the supplement of paper PMC12819154, “High-throughput peptide-centric local stability assay extends protein–ligand identification to membrane proteins, tissues and bacteria” (Nature Structural & Molecular Biology, 2025).
# Amino acid sequences for entries named in this document (tags omitted). A change or cut given only in a name is not applied to a line headed by its entry.
# UniProt Q504U0: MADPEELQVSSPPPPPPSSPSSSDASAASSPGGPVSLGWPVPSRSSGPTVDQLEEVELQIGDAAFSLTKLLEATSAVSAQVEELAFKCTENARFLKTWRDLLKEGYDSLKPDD
# UniProt Q5T5Y3: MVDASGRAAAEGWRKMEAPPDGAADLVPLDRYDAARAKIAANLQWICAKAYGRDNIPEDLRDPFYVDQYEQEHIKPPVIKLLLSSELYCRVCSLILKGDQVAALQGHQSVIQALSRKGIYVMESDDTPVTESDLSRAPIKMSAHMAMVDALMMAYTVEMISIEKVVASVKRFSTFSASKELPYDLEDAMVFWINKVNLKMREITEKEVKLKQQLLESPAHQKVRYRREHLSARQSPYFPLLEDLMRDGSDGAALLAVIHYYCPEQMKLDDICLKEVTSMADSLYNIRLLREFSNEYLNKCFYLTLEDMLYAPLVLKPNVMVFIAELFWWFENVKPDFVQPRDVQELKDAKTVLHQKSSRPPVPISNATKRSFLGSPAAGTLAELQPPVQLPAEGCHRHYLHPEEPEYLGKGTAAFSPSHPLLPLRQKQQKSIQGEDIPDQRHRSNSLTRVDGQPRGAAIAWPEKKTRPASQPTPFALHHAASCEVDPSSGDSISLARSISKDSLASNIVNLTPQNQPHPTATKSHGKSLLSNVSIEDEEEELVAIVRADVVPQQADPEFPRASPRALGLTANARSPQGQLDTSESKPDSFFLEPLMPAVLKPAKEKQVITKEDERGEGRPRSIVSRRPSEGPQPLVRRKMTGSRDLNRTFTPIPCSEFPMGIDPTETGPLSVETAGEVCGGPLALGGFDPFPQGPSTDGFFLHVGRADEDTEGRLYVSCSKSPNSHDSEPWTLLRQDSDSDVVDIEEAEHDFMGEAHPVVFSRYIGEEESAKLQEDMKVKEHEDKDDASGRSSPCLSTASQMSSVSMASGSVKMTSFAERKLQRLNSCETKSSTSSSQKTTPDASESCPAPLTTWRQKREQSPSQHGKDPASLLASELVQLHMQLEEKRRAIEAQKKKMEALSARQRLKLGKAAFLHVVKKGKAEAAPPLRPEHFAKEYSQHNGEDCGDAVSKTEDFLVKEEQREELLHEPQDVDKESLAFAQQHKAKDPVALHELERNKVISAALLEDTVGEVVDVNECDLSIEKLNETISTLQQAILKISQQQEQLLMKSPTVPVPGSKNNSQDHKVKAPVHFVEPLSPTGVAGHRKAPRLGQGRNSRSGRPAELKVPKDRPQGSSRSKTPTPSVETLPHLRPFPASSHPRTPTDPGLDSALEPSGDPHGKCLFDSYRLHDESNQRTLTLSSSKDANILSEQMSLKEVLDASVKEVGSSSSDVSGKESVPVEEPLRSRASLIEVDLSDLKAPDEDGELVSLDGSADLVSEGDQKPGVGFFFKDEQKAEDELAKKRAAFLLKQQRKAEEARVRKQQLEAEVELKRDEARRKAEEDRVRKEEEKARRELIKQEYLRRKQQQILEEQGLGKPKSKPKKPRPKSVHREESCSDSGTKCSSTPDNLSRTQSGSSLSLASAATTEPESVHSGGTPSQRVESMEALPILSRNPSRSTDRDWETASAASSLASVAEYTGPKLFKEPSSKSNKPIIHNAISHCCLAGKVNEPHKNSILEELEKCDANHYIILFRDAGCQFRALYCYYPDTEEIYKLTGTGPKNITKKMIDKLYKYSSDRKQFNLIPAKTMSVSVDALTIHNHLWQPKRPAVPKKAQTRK
# UniProt Q5T8D3: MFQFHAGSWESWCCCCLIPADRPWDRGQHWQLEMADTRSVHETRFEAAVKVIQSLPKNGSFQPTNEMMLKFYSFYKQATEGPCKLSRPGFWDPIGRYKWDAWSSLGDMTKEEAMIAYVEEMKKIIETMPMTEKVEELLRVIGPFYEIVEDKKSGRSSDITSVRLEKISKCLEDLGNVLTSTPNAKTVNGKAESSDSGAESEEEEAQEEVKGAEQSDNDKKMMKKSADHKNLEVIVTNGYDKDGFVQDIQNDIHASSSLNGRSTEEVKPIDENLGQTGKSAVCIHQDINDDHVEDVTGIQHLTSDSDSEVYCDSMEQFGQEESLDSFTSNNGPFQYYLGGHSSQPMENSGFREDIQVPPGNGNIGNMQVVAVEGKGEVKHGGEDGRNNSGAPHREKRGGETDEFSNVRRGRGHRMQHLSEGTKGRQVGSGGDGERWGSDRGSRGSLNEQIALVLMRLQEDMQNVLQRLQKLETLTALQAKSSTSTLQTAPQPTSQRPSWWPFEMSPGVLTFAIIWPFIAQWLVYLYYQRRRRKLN
# UniProt Q5T890: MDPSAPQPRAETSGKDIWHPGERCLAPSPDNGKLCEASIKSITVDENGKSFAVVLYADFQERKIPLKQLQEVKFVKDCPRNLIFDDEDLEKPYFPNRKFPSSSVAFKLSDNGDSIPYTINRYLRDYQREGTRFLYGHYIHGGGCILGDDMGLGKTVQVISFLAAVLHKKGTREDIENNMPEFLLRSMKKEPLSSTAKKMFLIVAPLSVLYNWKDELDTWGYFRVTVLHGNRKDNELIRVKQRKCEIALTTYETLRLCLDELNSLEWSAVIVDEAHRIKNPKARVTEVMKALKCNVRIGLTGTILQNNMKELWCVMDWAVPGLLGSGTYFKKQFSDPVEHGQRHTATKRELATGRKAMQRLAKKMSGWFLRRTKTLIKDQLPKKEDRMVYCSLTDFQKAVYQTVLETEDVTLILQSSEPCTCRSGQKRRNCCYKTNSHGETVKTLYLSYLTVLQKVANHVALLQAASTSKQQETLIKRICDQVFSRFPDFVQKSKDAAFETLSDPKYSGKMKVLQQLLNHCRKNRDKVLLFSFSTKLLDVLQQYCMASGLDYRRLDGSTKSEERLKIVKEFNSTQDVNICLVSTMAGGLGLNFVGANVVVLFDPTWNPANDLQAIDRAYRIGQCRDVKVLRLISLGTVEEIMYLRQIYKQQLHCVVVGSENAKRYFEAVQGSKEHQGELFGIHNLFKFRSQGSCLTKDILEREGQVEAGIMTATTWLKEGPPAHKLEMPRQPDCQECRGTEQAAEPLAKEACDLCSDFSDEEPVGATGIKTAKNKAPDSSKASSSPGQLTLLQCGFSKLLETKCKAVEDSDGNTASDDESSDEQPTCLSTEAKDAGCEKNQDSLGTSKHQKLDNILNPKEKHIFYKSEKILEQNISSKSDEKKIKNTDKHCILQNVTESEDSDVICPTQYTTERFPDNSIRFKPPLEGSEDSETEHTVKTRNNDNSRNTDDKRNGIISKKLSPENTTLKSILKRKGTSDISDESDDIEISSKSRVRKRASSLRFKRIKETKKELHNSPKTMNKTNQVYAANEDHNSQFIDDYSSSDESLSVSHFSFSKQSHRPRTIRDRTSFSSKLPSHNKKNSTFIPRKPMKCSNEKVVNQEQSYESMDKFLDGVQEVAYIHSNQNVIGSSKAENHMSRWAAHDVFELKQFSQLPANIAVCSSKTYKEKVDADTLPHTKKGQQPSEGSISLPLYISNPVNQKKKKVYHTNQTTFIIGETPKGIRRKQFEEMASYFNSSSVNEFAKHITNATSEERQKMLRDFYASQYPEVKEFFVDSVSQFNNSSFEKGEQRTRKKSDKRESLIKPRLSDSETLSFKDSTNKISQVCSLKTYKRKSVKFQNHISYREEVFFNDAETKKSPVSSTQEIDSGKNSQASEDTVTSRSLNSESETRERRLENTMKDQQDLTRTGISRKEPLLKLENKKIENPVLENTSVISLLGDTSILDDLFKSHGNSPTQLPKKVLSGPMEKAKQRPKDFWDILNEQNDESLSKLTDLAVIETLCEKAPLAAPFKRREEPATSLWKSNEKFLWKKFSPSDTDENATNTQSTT
# UniProt Q5T2R2: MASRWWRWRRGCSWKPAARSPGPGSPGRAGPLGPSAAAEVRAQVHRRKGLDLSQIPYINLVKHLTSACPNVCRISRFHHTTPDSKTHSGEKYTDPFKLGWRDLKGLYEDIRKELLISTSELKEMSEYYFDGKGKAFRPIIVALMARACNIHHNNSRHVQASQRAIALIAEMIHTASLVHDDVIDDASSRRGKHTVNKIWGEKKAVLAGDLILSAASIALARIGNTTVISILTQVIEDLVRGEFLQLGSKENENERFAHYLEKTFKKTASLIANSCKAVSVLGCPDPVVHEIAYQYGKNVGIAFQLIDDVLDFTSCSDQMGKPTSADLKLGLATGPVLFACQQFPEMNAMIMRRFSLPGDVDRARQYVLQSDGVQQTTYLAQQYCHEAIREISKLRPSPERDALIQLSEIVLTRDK
# UniProt Q5TB30: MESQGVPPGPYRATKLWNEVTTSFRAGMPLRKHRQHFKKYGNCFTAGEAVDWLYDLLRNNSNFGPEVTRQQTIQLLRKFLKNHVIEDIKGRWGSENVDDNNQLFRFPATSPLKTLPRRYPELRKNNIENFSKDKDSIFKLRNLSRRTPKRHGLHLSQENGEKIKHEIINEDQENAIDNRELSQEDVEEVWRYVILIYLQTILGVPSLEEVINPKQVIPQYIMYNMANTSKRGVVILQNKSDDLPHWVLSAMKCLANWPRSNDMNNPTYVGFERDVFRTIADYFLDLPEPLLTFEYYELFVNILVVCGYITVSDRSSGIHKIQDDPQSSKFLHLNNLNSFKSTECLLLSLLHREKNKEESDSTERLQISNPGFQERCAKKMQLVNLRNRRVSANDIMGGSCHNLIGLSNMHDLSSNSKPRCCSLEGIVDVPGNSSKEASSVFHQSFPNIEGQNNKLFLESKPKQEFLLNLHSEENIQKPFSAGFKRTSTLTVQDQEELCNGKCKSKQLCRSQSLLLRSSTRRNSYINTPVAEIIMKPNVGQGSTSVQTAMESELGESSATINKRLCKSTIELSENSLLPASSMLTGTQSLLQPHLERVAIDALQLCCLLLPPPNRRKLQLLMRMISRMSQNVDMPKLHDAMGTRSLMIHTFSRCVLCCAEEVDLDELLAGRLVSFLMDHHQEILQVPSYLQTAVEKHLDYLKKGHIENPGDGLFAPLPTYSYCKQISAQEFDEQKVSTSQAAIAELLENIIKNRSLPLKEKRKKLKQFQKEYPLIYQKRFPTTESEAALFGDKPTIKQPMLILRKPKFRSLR
# UniProt Q5VYS8: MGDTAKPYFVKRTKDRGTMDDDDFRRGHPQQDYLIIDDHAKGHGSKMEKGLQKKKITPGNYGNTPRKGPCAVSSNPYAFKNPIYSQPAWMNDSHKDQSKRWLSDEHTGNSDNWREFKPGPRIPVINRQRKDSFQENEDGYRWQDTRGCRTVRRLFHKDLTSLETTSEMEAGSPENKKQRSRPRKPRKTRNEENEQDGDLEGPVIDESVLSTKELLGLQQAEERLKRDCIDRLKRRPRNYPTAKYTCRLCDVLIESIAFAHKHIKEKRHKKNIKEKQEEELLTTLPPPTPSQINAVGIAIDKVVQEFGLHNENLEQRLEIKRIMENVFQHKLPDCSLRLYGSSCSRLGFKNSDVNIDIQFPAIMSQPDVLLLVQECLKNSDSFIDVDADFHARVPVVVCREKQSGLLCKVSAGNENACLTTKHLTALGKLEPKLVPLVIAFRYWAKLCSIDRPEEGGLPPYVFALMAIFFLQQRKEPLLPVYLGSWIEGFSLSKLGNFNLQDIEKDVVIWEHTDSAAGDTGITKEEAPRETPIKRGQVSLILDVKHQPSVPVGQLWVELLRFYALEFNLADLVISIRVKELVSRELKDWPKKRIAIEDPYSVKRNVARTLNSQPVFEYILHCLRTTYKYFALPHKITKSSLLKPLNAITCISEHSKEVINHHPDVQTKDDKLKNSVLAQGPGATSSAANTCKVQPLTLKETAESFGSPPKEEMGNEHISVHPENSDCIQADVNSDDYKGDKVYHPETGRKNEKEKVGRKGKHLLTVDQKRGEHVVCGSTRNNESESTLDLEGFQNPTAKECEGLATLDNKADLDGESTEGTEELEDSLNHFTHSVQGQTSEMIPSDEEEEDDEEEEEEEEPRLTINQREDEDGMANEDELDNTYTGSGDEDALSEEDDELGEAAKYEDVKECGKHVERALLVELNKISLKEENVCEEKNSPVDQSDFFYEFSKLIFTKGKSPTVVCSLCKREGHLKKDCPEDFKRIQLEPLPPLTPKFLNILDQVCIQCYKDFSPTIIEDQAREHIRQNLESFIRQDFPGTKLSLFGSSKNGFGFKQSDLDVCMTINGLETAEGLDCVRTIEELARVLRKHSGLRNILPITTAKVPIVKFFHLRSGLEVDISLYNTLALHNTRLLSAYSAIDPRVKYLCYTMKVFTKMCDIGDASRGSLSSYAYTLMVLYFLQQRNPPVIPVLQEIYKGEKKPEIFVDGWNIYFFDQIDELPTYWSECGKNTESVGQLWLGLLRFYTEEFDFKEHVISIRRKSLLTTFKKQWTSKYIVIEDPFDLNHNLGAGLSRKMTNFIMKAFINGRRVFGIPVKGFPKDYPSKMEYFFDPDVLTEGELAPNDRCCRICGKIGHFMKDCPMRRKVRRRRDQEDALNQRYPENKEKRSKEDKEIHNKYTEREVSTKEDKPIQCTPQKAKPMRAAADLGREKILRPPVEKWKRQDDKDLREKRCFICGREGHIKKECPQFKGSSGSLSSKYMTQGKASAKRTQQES
# Some of the results follow. Small differences around the control level are noise.
# Compound: CN[C@@H]1C[C@H]2O[C@@](C)([C@@H]1OC)n1c3ccccc3c3c4c(c5c6ccccc6n2c5c31)C(=O)NC4 [staurosporine]
# Assay: log2 fold change of tryptic peptide abundance, ligand vs vehicle (limited proteolysis) (log2 ratio); higher = more trypsin-susceptible (destabilized)
# Details: ligand concentration: 20 uM; sample: K562 cleared lysate; digestion: 4 min, 22 C (HT-PELSA RT4min, Orbitrap Astral)
row,Target,log2 fold change
1,"C4orf46 (peptide sequence: EGYDSLKPDD, peptide start residue: 104) (UniProt Q504U0)",0.148
2,"UniProt Q5SRN2 (peptide sequence: KSCSKIQILK, peptide start residue: 226)",0.13
3,"YIF1B (peptide sequence: MHPAGLAAAAAGTPR, peptide start residue: 1) (UniProt Q5BJH7)",0.0485
4,"CEP85L (peptide sequence: AQGKEPNLSLLLGIR, peptide start residue: 737) (UniProt Q5SZL2)",0.373
5,"PHLDA2 (peptide sequence: YVYFTIVTTDHK, peptide start residue: 67) (UniProt Q53GA4)",-0.581
6,"CAMSAP1 (peptide sequence: EYSQHNGEDCGDAVSKTEDFLVK, peptide start residue: 938) (UniProt Q5T5Y3)",1.13
7,"EARS2 (peptide sequence: AQLDAISEKVDVIAK, peptide start residue: 433) (UniProt Q5JPH6)",0.238
8,"UniProt Q5SVQ8 (peptide sequence: AADLAFLEK, peptide start residue: 851)",-0.0312
9,"RBM48 (peptide sequence: AITSSEAVDR, peptide start residue: 264) (UniProt Q5RL73)",-0.357
10,"RIF1 (peptide sequence: NVSQESLETKEEKPEETPK, peptide start residue: 1871) (UniProt Q5UIP0)",-0.82
11,"UniProt Q5TEC6 (peptide sequence: STELLIRKLPFQR, peptide start residue: 58)",1.26
12,"UniProt Q5T5D7 (peptide sequence: NLISVGCPITK, peptide start residue: 43)",0.135
13,"UniProt Q5T035 (peptide sequence: NLTEQNSYSNIPHEGK, peptide start residue: 411)",-0.0427
14,"PITRM1 (peptide sequence: IFSQHLQNR, peptide start residue: 216) (UniProt Q5JRX3)",-0.818
15,"ACBD5 (peptide sequence: STEEVKPIDENLGQTGK, peptide start residue: 262) (UniProt Q5T8D3)",0.675
16,"ERCC6L2 (peptide sequence: ILEQNISSK, peptide start residue: 880) (UniProt Q5T890)",0.385
17,"UniProt Q5MIZ7 (peptide sequence: AKESEDKENLPK, peptide start residue: 754)",0.202
18,"SAMD4B (peptide sequence: MGLLSPSGIGGVSPR, peptide start residue: 588) (UniProt Q5PRF9)",-0.764
19,"GRIPAP1 (peptide sequence: TQELNMLR, peptide start residue: 353) (UniProt Q4V328)",0.295

# Part of the list above, tab-delimited.
row	Target	log2 fold change
13	UniProt Q5T035 (peptide sequence: NLTEQNSYSNIPHEGK, peptide start residue: 411)	-0.0427
14	PITRM1 (peptide sequence: IFSQHLQNR, peptide start residue: 216) (UniProt Q5JRX3)	-0.818

# The results go on:

row,Target,log2 fold change
1,"NOL9 (peptide sequence: LLSPSHVVQFR, peptide start residue: 425) (UniProt Q5SY16)",0.937
2,"UniProt Q5J8M3 (peptide sequence: TAQGGLVANR, peptide start residue: 2)",-0.158
3,"CEP55 (peptide sequence: LKGEIAHLK, peptide start residue: 30) (UniProt Q53EZ4)",-0.979
4,"BOLA3 (peptide sequence: IESEEFKEKR, peptide start residue: 67) (UniProt Q53S33)",0.467
5,"TMEM63B (peptide sequence: LALVTDADR, peptide start residue: 72) (UniProt Q5T3F8)",-0.614
6,"CCDC93 (peptide sequence: TVVDLSEVYKPR, peptide start residue: 168) (UniProt Q567U6)",-0.11
7,"KLHL26 (peptide sequence: TWGHAGAASGGR, peptide start residue: 450) (UniProt Q53HC5)",0.766
8,"CRTC2 (peptide sequence: VPLSPLSLLAGPADARR, peptide start residue: 430) (UniProt Q53ET0)",-0.457
9,"ACSM3 (peptide sequence: HCVSAGEPITPDVTEK, peptide start residue: 348) (UniProt Q53FZ2)",-0.361
10,"ATF7IP2 (peptide sequence: NKHEGIADK, peptide start residue: 355) (UniProt Q5U623)",0.0492
11,"UniProt Q5VSL9 (peptide sequence: TMMLVVFK, peptide start residue: 682)",-0.108
12,"PAGE2B (peptide sequence: IEDEPGDGPDVR, peptide start residue: 80) (UniProt Q5JRK9)",-0.161
13,"PDSS1 (peptide sequence: FSLPGDVDR, peptide start residue: 354) (UniProt Q5T2R2)",-0.245
14,"UniProt Q5T7W7 (peptide sequence: LFVFDER, peptide start residue: 400)",-0.135
15,"PCID2 (peptide sequence: HPHVANPR, peptide start residue: 33) (UniProt Q5JVF3)",0.299
16,"UniProt Q5TB30 (peptide sequence: NHVIEDIK, peptide start residue: 82)",0.174
17,"UniProt Q5VYS8 (peptide sequence: NILPITTAKVPIVK, peptide start residue: 1046)",0.626
18,"GLE1 (peptide sequence: KVQALSEMASEQLK, peptide start residue: 157) (UniProt Q53GS7)",-0.7
